Data from patent publication US12691102B2, “Composition for preventing or treating chronic kidney disease, comprising compound that induces expression of anti-aging gene klotho” (KLOTHO SCIENCES, priority 2021, dated 2026).
Some entries share one result that the patent states for a list of compounds.

What follows are compounds tested on klotho (KL) gene (assay: Quantitative evaluation of klotho (KL) gene expression level using general PCR in RPTEC cells). Conditions: 2.5 μM, 6 hours, FIG. 5.
Type: cell-based, human
Protocol: After RPTEC cells, which are epithelial cells of the proximal tubule of the human kidneys, were each treated with the compounds of Examples 7 to 10 at 2.5 μM for 6 hours, RNA was extracted from the cells, and cDNA was prepared from the extracted RNA using a Superscript II kit from Thermo Fisher Scientific, Inc., and then general PCR was performed.
Information on the primers used in the experiment is as follows. • KL-F […] (SEQ ID NO: 1) • KL-R […] (SEQ ID NO: 2) • GAPDH-F […] (SEQ ID NO: 3) • GAPDH-R […] (SEQ ID NO: 4)
The DNA amplified by PCR was confirmed by staining with ethidium bromide after electrophoresis on an agarose gel, and the amounts of DNA in the band were quantitatively compared using the SPEedyQuant program, and are illustrated in FIG. 5.

SMILES | expression level of the klotho (KL) gene compared with Comparative Example 1
Clc1ccc(Nc2nc3cc4ccccc4cc3o2)cc1Cl [Example 8, N-(3,4-dichlorophenyl)naphtho[2,3-d]oxazol-2-amine] | much higher
Cc1ccc2oc(Nc3ccc(F)c(F)c3)nc2c1 [Example 9, N-(3,4-difluorophenyl)-5-methylbenzo[d]oxazol-2-amine] | much higher
Fc1ccc(Nc2nc3ccccc3o2)cc1F [Example 10, N-(3,4-difluorophenyl)benzo[d]oxazol-2-amine] | much higher
